The text below walks through data of patent CN111320694A.

By UniProt entry, the sequences of proteins in these tests, tags left out. Residues count along the entry.
UniProt P51654, residues 25-559: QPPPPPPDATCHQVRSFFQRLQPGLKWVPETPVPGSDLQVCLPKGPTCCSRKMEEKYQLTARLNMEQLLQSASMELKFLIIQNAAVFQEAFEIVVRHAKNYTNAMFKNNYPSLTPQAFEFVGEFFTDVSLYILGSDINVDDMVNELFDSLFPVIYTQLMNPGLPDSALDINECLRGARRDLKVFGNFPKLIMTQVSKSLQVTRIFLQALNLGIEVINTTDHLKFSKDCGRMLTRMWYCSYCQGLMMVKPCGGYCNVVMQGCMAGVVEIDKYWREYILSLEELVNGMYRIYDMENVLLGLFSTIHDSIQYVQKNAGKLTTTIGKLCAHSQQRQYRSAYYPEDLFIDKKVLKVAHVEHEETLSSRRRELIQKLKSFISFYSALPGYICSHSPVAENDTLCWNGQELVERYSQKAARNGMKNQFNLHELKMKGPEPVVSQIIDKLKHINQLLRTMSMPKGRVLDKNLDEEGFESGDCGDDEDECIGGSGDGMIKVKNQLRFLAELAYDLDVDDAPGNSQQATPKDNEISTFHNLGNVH

These are yes or no findings as the source states them, for the method shown. Some results given as binding are weak or reduced against the parent protein; the word gives no strength.

Experiment [1] addresses GPC3蛋白 (Glypican 3 protein, recombinant) (UniProt P51654). Nature of the experiment: sandwich phage ELISA, GPC3 captured by alpaca anti-GPC3 IgG; clone that gave GN2. For orientation: In an ELISA, binding on a coated surface is turned into a signal by an enzyme label.
The target is the same in experiment [2]. The experiment can be described thus: ELISA on coated GPC3 protein (1μg/mL), detection by HRP anti-HA, after heat treatment of GN2.

B1: 纳米抗体GN2 (anti-GPC3 nanobody GN2) (VHH, not shown: small tags and cut ends)
VHH: QVQLVESGGGLVQPGGSLRLSCAASGFTLDAYAIGWFRQAPGKEREGVSYITSGTGTTLYADSVKGRFTISRDNAKNTVYLQMNSLKPEDTAVYFCTTLKRTTAGGWPIPGRIGGQGTQVTVSS
For the molecule B1, the binding entry in experiment [1] and in experiment [2] was “binds” in each case.
